Reference: US20240368215 (published 2024)

Assay: Fmoc solid-phase peptide synthesis in flow; IBCF with DIEA and DMBA
Settings: coupling step

Row | Substance | step yield
1 | H-Ala-Glu(OtBu)-Lys(Boc)-Leu-O-TIPS2 | 95%
2 | H-Glu(OtBu)-Ala-Glu(OtBu)-Lys(Boc)-Leu-O-TIPS2 | 96%
